Reference: PMC8225222
These are yes or no findings as the source states them, for the method shown. Binding seen in cells or lysates may run through a third protein. Some entries that bind do so weakly or less than the wild type. Sequences can lack the tags named with a protein.

By UniProt entry, the sequences of proteins in these tests, tags left out.
UniProt P40763: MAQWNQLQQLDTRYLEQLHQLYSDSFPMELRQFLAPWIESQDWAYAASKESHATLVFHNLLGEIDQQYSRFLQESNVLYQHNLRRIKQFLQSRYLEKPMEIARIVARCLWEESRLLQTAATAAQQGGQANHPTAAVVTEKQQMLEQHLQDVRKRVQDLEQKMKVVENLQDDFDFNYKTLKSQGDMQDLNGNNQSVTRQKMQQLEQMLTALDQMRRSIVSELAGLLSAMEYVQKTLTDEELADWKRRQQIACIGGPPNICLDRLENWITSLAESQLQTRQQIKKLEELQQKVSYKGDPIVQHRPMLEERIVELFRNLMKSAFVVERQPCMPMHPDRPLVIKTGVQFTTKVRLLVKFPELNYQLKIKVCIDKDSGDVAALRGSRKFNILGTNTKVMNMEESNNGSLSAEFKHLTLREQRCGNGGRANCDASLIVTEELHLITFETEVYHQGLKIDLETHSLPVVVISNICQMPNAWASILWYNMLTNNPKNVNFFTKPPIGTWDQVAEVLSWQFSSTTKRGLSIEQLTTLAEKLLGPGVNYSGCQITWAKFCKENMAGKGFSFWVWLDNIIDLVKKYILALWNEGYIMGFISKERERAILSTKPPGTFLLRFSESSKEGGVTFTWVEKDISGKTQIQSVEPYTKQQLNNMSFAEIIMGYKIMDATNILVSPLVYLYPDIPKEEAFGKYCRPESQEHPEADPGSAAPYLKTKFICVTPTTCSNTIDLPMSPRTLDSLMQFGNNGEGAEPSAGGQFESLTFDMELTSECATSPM

Biological target: T1, LCMV zinc finger matrix protein Z, C-terminal strep tag (pCAGGs-LCMV-Z-strep) (lymphocytic choriomeningitis virus (LCMV)) (UniProt P18541)
T1 sequence: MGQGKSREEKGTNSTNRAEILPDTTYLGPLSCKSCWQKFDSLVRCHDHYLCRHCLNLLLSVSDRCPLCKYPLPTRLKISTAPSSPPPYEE
Test: co-IP

Question: How did the binding turn out when “signal transducer and activator of transcription 3 (STAT3) (from UniProt P40763 1-770)” was run?
Answer: binds
